Assay results reported in patent US10993448B2, “Method for sanitizing fresh produce” (Dole Fresh Vegetables, Inc., priority 2014, dated 2021).
For some of these results: At least one compound was matched to its structure with a doubt left. Some of these results come from one statement about several compounds together.

Assays:
[1] = test system: microbial load of lettuce; conditions: cited from earlier work
[2] = test system: background microflora in wash water; assay: Reduction of bacteria from wash water using ozone; format: cell-based
Source text: Water containing high levels of background microflora was generated by dipping 200 g of lettuce in 2 L of water for 20 seconds. This lettuce was discarded and another 200 g of lettuce was dipped in the same water for 20 seconds. This was repeated for a total of 10 dips (referred to as Control in Table 34 below). Water with dissolved Ozone was then generated using a ClearWater Tech MSW245 Mobile Ozone Generator (San Luis Obispo, Calif.). The control microflora containing water was then mixed with this ‘Ozonated water’ at various mix levels ranging from 10 to 60% of the ozonated water with the control microflora containing water. First, 10% ozonated water was blended with 90% microflora containing water and after 20 seconds, 100 ml of water was removed into a sterile water sample bottle. This protocol was repeated in triplicate, as well as testing 20%, 30%, 40%, 50%, and 60% blends of ozonated water combined with the microflora containing water. In addition, 200 g of lettuce was added to the ozonated solution for 20 seconds and 100 ml of water was then collected in a sterile water sample bottle. This was also repeated in triplicate. The samples were serially diluted using PB as the diluent and plated on Total Plate Count agar. The plates were incubated for 48 hours at 30° C. for enumeration of the bacteria present following treatment.
The theoretical dilution reduction in Table 34 was calculated based on the number of cells that would be present if they were diluted in water or buffer (i.e. not a solution that would cause cell death or injury).

[3] = lettuce 20 sec in ozone solution, initial ozone 2.2 ppm
[4] = ozone solution (initial 1.8 ppm) mixed with microflora containing water, 20 seconds, listed as 10% ozone solution
[5] = ozone solution (initial 1.8 ppm) mixed with microflora containing water, 20 seconds, listed as 20% ozone solution
[6] = ozone solution (initial 1.8 ppm) mixed with microflora containing water, 20 seconds, listed as 30% ozone solution
[7] = ozone solution (initial 1.8 ppm) mixed with microflora containing water, 20 seconds, listed as 40% ozone solution
[8] = ozone solution (initial 1.8 ppm) mixed with microflora containing water, 20 seconds, listed as 50% ozone solution
[9] = ozone solution (initial 1.8 ppm) mixed with microflora containing water, 20 seconds, listed as 60% ozone solution

SMILES: CC(=O)OO [PAA, peroxyacetic acid]
- log unit reduction in microbial load [1]: 2-2.5 log unit

SMILES: O=[O+][O-] [ozone solution, ozone]
- Replicate 1 [2, 3]: 6.70.E+03
- Replicate 2 [2, 3]: 6.90.E+03
- Replicate 3 [2, 3]: 7.10.E+03
- Replicate 1 [2, 4]: 3.00.E+05
- Replicate 2 [2, 4]: 3.10.E+05
- Replicate 3 [2, 4]: 2.90.E+05
- Replicate 1 [2, 5]: 1.50.E+05
- Replicate 2 [2, 5]: 2.40.E+05
- Replicate 3 [2, 5]: 1.66.E+05
- Replicate 1 [2, 6]: 2.00.E+05
- Replicate 2 [2, 6]: 1.49.E+05
- Replicate 3 [2, 6]: 1.75.E+05
- Replicate 1 [2, 7]: 1.42.E+05
- Replicate 2 [2, 7]: 8.80.E+04
- Replicate 3 [2, 7]: 1.35.E+05
- Replicate 1 [2, 8]: 8.50.E+04
- Replicate 2 [2, 8]: 9.60.E+04
- Replicate 3 [2, 8]: 8.20.E+04
- Replicate 1 [2, 9]: 6.10.E+04
- Replicate 2 [2, 9]: 8.50.E+04
- Replicate 3 [2, 9]: 6.50.E+04
